{"sequences": {"note": "By UniProt entry, the sequences of proteins in these tests, tags left out.", "UniProt P43403": "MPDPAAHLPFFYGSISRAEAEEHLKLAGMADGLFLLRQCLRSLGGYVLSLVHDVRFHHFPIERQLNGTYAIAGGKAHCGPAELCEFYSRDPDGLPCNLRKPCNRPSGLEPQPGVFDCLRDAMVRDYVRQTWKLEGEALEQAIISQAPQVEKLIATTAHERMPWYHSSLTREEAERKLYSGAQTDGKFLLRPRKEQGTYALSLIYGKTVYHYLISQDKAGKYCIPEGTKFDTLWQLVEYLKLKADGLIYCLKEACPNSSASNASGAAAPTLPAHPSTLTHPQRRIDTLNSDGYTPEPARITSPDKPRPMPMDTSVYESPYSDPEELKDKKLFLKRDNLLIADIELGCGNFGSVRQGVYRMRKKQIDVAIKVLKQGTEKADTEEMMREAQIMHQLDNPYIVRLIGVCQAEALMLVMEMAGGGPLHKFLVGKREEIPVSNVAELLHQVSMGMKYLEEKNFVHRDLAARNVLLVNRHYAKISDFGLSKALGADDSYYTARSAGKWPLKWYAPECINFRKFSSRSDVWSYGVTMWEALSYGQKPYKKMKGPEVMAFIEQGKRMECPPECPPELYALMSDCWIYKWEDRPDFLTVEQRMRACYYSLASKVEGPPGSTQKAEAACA"}, "source": "patent US20040171537A1", "binders": {"B1": {"name": "GST-MARS (wild type murine MARS GST fusion protein) (protein, not shown: a dimerising Fc or GST)", "chain": "MGSLSSRGKTSSPSPSSSGPDQEPVSMQPERHKVTAVALGSFPAGEQARLSLRLGEPLTIISEDGDWWTVQSEVSGREYHMPSVYVAKVAHGWLYEGLSREKAEELLLLPGNPGGAFLIRESQTRRGCYSLSVRLSRPASWDRIRHYRIQRLDNGWLYISPRLTFPSLHALVEHYSELADGICCPLREPCVLQKLGPLPGKDTPPPVTVPTSSLNWKKLDRSLLFLEAPASGEASLLSEGLRESLSSYISLAEDPLDDA"}, "B2": {"name": "GST fusion of full-length human MARS (protein, not shown: a dimerising Fc or GST)", "chain": "MGSLPSRRKSLPSPSLSSSVQGQGPVTMEAERSKATAVALGSFPAGGPAELSLRLGEPLTIVSEDGDWWTVLSEVSGREYNIPSVHVAKVSHGWLYEGLSREKAEELLLLPGNPGGAFLIRESQTRRGSYSLSVRLSRPASWDRIRHYRIHCLDNGWLYISPRLTFPSLQALVDHYSELADDICCLLKEPCVLQRAGPLPGKDIPLPVTVQRTPLNWKELDSSLLFSEAATGEESLLSEGLRESLSFYISLNDEAVSLDDA"}, "B3": {"name": "murine MARS protein (endogenous) (protein)", "chain": "GSLSSRGKTSSPSPSSSGPDQEPVSMQPERHKVTAVALGSFPAGEQARLSLRLGEPLTIISEDGDWWTVQSEVSGREYHMPSVYVAKVAHGWLYEGLSREKAEELLLLPGNPGGAFLIRESQTRRGCYSLSVRLSRPASWDRIRHYRIQRLDNGWLYISPRLTFPSLHALVEHYSELADGICCPLREPCVLQKLGPLPGKDTPPPVTVPTSSLNWKKLDRSLLFLEAPASGEASLLSEGLRESLSSYISLAEDPLDDA", "modifications": "p28 isoform carries an N-terminal myristoylation sequence"}}, "key": {"[1]": {"target": "ZAP-70 (endogenous, Jurkat T-cell lysate) (human) (UniProt P43403)", "test": "GST pull-down from Jurkat lysates, immunoblot"}, "[2]": {"target": "ZAP-70 (endogenous, Jurkat T-cell lysate) (human) (UniProt P43403)", "test": "GST pull-down from Jurkat lysates, immunoblot (legend of FIG. 5)"}, "[3]": {"target": "ZAP-70 (endogenous, Jurkat T-cell lysate) (human) (UniProt P43403)", "test": "GST pull-down from anti-CD3 stimulated Jurkat lysates, immunoblot"}, "[4]": {"target": "c-Cbl (endogenous, Jurkat T-cell lysate) (human) (UniProt P22681)", "test": "summary statement; the matching experiment is the GST pull-down from Jurkat lysates of FIG. 13"}, "[5]": {"target": "ZAP-70 (endogenous, Jurkat T-cell lysate) (human) (UniProt P43403)", "test": "summary statement; the matching experiment is the GST pull-down from Jurkat lysates of FIG. 13 (anti-phosphotyrosine blot)"}, "[6]": {"target": "c-Cbl (endogenous, mouse primary thymocytes) (mouse) (UniProt P22682)", "test": "co-immunoprecipitation with anti-MARS-C from mouse primary thymocytes, anti-c-Cbl immunoblot"}}, "note": "No constants are given. Whether binding was seen depends on the method and setting. Binding seen in cells or lysates may run through a third protein. Some results given as binding are weak or reduced against the parent protein; the word gives no strength. For part of these data: Sequences can lack the tags named with a protein.", "data": [{"binder": "B1", "values": [{"measurement": "binding", "setting": "[1]", "result": "binds"}, {"measurement": "binding", "setting": "[2]", "result": "binds"}, {"measurement": "binding", "setting": "[3]", "result": "binds"}]}, {"binder": "B2", "values": [{"measurement": "binding", "setting": "[4]", "result": "binds"}, {"measurement": "binding", "setting": "[5]", "result": "binds"}]}, {"binder": "B3", "values": [{"measurement": "binding", "setting": "[6]", "result": "binds"}]}]}
